Results as given in the supplement of paper PMC12823440, “Inhibitors supercharge kinase turnover through native proteolytic circuits” (Nature, 2025).
Where a name gives a salt, the structure may show the parent alone. This is one part of the list. Hit calls seldom repeat between salt and free forms of one compound.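 In K562 cells expressing nanoluciferase-fused kinases, luminescence was recorded at 4 h intervals between 2 and 18 h, normalized as percent of control with DMSO at 100% and a positive control at 0%. A significant (2 sigma) signal drop marks a time point as decreased. The authors' rule for a hit is not shown and takes in more than the number of time points.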

Target: EGFR_L861Q (UniProt P00533)
Experiment: kinase-Nluc reporter destabilization hit call (1 = scored as downregulated) (binary); higher = compound decreases kinase abundance
Details: 10 µM; K562; 2-18 h

kinase-Nluc reporter destabilization hit call, inactive:
C=CC(=O)N1CCC([C@@H]2CCNc3c(C(N)=O)c(-c4ccc(Oc5ccccc5)cc4)nn32)CC1 [Zanubrutinib] 0
CCn1c(=O)c(-c2cc(NC(=O)Nc3ccccc3)c(F)cc2Br)cc2cnc(NC)cc21 [Ripretinib] 0
COc1cc(N2CCN(C)CC2)ccc1Nc1nccc(-c2cn(C)c3cnccc23)n1 0
Fc1ccc(-c2nc(-c3ccc4ccccc4c3F)[nH]c2-c2ccncc2)cc1 0
C=CC(=O)N(C)CCOc1c(N)ncnc1-c1cc(F)cc(NC(=O)c2ccc(C3CC3)cc2F)c1C [Remibrutinib] 0
NCCNc1ncc(C(N)=O)c(Nc2cccc(C(F)(F)F)c2)n1 [Syk Inhibitor II] 0
C[C@@H]1O[C@@H](Oc2c(-c3ccc(O)c(O)c3)oc3cc(O)cc(O)c3c2=O)[C@H](O)[C@H](O)[C@H]1O [Quercitrin] 0
CCCOc1ccc(C=C2SC(=O)NC2=O)cc1 0
Cc1cc2c(F)c(Oc3ncnn4cc(OC[C@@H](C)O)c(C)c34)ccc2[nH]1 [Brivanib] 0
CC(C)[C@@](C)(O)[C@@H]1CN(c2nc(-c3[nH]nc4ncccc34)c(F)cc2Cl)CCN1 0
CCCCCCCCCCCCc1ccc(S(=O)(=O)Nc2nncs2)cc1 0
CC#CC(=O)N1CCC[C@H]1c1nc(-c2ccc(C(=O)Nc3ccccn3)cc2)c2c(N)nccn12 [Acalabrutinib] 0
CC(C)N(CCC(=O)c1ccc2ccccc2c1)Cc1ccccc1 0
C=CC(=O)N1C[C@@H](Nc2ncnc3[nH]ccc23)CC[C@H]1C [(2R,5S)-Ritlecitinib] 0
COc1ccc(-c2cc(C(=O)NN=C(C)c3ccc(OC)c(OC)c3)[nH]n2)cc1 0
Cc1ccc2c(=O)c3cccc(CC(=O)O)c3oc2c1C [Vadimezan] 0
C[C@@H]1CN(C(=O)Nc2ccc(-c3nc(N4CCOCC4)c4cnn(CCCCCCC(=O)NO)c4n3)cc2)CCO1 [HDACs/mTOR Inhibitor 1] 0
C[C@H]1CN(C2COC2)CCN1c1ccc(Nc2cc(-c3ccnc(N4CCn5c(cc6c5CC(C)(C)C6)C4=O)c3CO)cn(C)c2=O)nc1 [Fenebrutinib] 0
Nc1ncccc1-c1nc2ccc(-c3ccccc3)nc2n1-c1ccc(C2(N)CCC2)cc1 [Miransertib] 0
O=c1ncn2nc(Sc3ccc(F)cc3F)ccc2c1-c1c(Cl)cccc1Cl [Neflamapimod] 0
CCCCCC1CC1CC1CC1CCCCCCCC(=O)OC (configuration not stated) 0
NC1(C(=O)N[C@@H](CCO)c2ccc(Cl)cc2)CCN(c2nc[nH]c3nccc2-3)CC1 [Capivasertib] 0
Cc1ccc(O)cc1Nc1ccnc(Nc2cccc(C(N)=O)c2)n1 [Lck inhibitor 2] 0

Target: EGFR_T790M (UniProt P00533)
Experiment: as above
Details: 2.5 µM; K562; 2-18 h

kinase-Nluc reporter destabilization hit call, inactive:
C=CC(=O)N1CCC[C@@H](n2nc(-c3ccc(Oc4ccccc4)cc3)c3c(N)ncnc32)C1 [Ibrutinib] 0
Cc1cn(-c2cc(NC(=O)c3ccc(C)c(Nc4nccc(-c5cccnc5)n4)c3)cc(C(F)(F)F)c2)cn1 [Nilotinib] 0
Cc1cc(C)n2c1C=C1C=CC(CCC(=O)NCCN3CCN(C/C=C/C(=O)N4CCCC(n5nc(-c6ccc(Oc7ccccc7)cc6)c6c(N)ncnc65)C4)CC3)=[N+]1[B-]2(F)F (configuration not stated) 0
Cc1cnc(Nc2ccc(OCCN3CCCC3)cc2)nc1Nc1cccc(S(=O)(=O)NC(C)(C)C)c1 [Fedratinib (hydrochloride hydrate)] 0
O=C(Nc1cccc(Nc2nccc(Nc3cccc(C(F)(F)F)c3)n2)c1)C1CC1 [Aurora kinase inhibitor-3] 0
COc1ccc(-c2cc3nccn3c(Nc3ncccc3C(N)=O)n2)cc1OC [BAY 61-3606 (dihydrochloride)] 0
Nc1nc(Nc2ccc(S(N)(=O)=O)cc2)nn1C(=O)c1c(F)cccc1F 0
COc1cc(N2CCC(N3CCN(C)CC3)CC2)ccc1Nc1ncc(Cl)c(Nc2ccccc2S(=O)(=O)C(C)C)n1 0
COc1cc(Nc2c(C#N)cnc3cc(OCCCN4CCN(C)CC4)c(OC)cc23)c(Cl)cc1Cl [Bosutinib] 0
CCc1cc2c(cc1-c1cnn(CC(=O)N(C)C)c1)C(C)(C)c1[nH]c3cc(C#N)ccc3c1C2=O 0
Cc1cnc(Nc2ccc(OCCN3CCCC3)cc2)nc1Nc1cccc(S(=O)(=O)NC(C)(C)C)c1 [Fedratinib] 0

A section from further up, for reference:
kinase-Nluc reporter destabilization hit call, inactive:
Nc1nc(Nc2ccc(S(N)(=O)=O)cc2)nn1C(=O)c1c(F)cccc1F 0
COc1cc(N2CCC(N3CCN(C)CC3)CC2)ccc1Nc1ncc(Cl)c(Nc2ccccc2S(=O)(=O)C(C)C)n1 0
COc1cc(Nc2c(C#N)cnc3cc(OCCCN4CCN(C)CC4)c(OC)cc23)c(Cl)cc1Cl [Bosutinib] 0

Same assay, conditions: 10 µM; K562; 2-18 h

kinase-Nluc reporter destabilization hit call, inactive:
C=CC(=O)N1CCC([C@@H]2CCNc3c(C(N)=O)c(-c4ccc(Oc5ccccc5)cc4)nn32)CC1 [Zanubrutinib] 0
CCn1c(=O)c(-c2cc(NC(=O)Nc3ccccc3)c(F)cc2Br)cc2cnc(NC)cc21 [Ripretinib] 0
COc1cc(N2CCN(C)CC2)ccc1Nc1nccc(-c2cn(C)c3cnccc23)n1 0
Fc1ccc(-c2nc(-c3ccc4ccccc4c3F)[nH]c2-c2ccncc2)cc1 0
C=CC(=O)N(C)CCOc1c(N)ncnc1-c1cc(F)cc(NC(=O)c2ccc(C3CC3)cc2F)c1C [Remibrutinib] 0
NCCNc1ncc(C(N)=O)c(Nc2cccc(C(F)(F)F)c2)n1 [Syk Inhibitor II] 0
C[C@@H]1O[C@@H](Oc2c(-c3ccc(O)c(O)c3)oc3cc(O)cc(O)c3c2=O)[C@H](O)[C@H](O)[C@H]1O [Quercitrin] 0
CCCOc1ccc(C=C2SC(=O)NC2=O)cc1 0
Cc1cc2c(F)c(Oc3ncnn4cc(OC[C@@H](C)O)c(C)c34)ccc2[nH]1 [Brivanib] 0
CC(C)[C@@](C)(O)[C@@H]1CN(c2nc(-c3[nH]nc4ncccc34)c(F)cc2Cl)CCN1 0
CCCCCCCCCCCCc1ccc(S(=O)(=O)Nc2nncs2)cc1 0
CC#CC(=O)N1CCC[C@H]1c1nc(-c2ccc(C(=O)Nc3ccccn3)cc2)c2c(N)nccn12 [Acalabrutinib] 0
CC(C)N(CCC(=O)c1ccc2ccccc2c1)Cc1ccccc1 0
C=CC(=O)N1C[C@@H](Nc2ncnc3[nH]ccc23)CC[C@H]1C [(2R,5S)-Ritlecitinib] 0
COc1ccc(-c2cc(C(=O)NN=C(C)c3ccc(OC)c(OC)c3)[nH]n2)cc1 0
Cc1ccc2c(=O)c3cccc(CC(=O)O)c3oc2c1C [Vadimezan] 0
C[C@@H]1CN(C(=O)Nc2ccc(-c3nc(N4CCOCC4)c4cnn(CCCCCCC(=O)NO)c4n3)cc2)CCO1 [HDACs/mTOR Inhibitor 1] 0
C[C@H]1CN(C2COC2)CCN1c1ccc(Nc2cc(-c3ccnc(N4CCn5c(cc6c5CC(C)(C)C6)C4=O)c3CO)cn(C)c2=O)nc1 [Fenebrutinib] 0
Nc1ncccc1-c1nc2ccc(-c3ccccc3)nc2n1-c1ccc(C2(N)CCC2)cc1 [Miransertib] 0
O=c1ncn2nc(Sc3ccc(F)cc3F)ccc2c1-c1c(Cl)cccc1Cl [Neflamapimod] 0
CCCCCC1CC1CC1CC1CCCCCCCC(=O)OC (configuration not stated) 0
NC1(C(=O)N[C@@H](CCO)c2ccc(Cl)cc2)CCN(c2nc[nH]c3nccc2-3)CC1 [Capivasertib] 0
Cc1ccc(O)cc1Nc1ccnc(Nc2cccc(C(N)=O)c2)n1 [Lck inhibitor 2] 0
